Results taken from article PMC10318043.
Results are given in words; binding and its absence hold for the method and conditions named. Binding seen in cells or lysates may run through a third protein. Some results given as binding are weak or reduced against the parent protein; the word gives no strength. For part of these data: Tags and fused reporters may be left off the sequences shown.

Amino acid sequences for entries named in this document (tags omitted).
UniProt P49841: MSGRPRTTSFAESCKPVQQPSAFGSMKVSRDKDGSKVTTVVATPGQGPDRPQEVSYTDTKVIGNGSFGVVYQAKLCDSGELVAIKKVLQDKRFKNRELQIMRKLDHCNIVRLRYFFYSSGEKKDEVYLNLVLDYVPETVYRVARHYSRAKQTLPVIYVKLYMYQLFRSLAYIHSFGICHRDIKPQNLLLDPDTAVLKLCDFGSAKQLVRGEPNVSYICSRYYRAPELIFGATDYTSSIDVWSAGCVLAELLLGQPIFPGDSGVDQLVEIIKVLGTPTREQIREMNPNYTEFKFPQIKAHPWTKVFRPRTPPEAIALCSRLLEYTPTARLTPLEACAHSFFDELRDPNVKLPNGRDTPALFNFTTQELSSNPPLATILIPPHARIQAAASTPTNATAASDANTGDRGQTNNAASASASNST
UniProt Q16584: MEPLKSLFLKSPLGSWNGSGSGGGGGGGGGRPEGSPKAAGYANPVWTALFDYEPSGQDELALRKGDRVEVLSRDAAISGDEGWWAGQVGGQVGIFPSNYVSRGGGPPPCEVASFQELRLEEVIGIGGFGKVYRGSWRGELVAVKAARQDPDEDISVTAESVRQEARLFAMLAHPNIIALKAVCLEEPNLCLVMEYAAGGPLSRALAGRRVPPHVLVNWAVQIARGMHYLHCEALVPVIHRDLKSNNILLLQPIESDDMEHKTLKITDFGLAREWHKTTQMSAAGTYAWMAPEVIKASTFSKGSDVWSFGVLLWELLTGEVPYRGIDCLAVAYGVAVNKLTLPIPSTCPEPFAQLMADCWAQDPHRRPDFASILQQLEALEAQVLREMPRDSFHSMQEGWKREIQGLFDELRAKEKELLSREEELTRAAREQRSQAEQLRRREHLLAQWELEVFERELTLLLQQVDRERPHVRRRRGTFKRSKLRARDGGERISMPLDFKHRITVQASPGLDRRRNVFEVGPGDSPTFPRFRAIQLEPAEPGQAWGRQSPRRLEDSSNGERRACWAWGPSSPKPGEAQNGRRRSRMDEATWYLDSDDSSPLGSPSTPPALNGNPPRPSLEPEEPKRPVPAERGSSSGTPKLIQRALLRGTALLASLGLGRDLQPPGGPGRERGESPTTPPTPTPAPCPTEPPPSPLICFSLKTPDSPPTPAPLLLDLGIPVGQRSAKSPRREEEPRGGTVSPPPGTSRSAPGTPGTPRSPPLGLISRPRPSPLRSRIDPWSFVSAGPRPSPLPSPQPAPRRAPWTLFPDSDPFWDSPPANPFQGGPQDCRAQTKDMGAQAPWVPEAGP
UniProt P45983: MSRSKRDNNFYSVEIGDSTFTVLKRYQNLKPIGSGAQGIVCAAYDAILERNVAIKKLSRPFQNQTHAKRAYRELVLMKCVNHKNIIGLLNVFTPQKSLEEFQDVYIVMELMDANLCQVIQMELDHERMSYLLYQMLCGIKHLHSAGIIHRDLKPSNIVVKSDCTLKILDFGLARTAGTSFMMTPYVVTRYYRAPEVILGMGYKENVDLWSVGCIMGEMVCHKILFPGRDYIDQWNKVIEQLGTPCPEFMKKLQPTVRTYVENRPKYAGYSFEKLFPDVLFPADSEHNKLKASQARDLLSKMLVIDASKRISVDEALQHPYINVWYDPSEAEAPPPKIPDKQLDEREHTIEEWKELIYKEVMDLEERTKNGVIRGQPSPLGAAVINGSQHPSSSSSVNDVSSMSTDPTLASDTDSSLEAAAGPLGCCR

How the values were obtained:
Flag-JNK2 = Flag-JNK2 (UniProt P45984); experiment: co-IP; HEK293 cells cotransfected with HA-hPellino3 and Flag-tagged kinase plasmids; lysates immunoprecipitated with anti-Flag, immunoblotted with anti-HA and anti-Flag
[1] = biological target: Flag-GSK3β (human) (human) (UniProt P49841); experiment: as above
Flag-MLK3 [2] = biological target: Flag-MLK3 (UniProt Q16584); experiment: as above
Flag-JNK1 = Flag-JNK1 (UniProt P45983); experiment: as above
[3] = biological target: Flag-GSK3β (human) (human) (UniProt P49841); experiment: co-IP; Supplementary Fig. 3a, b; tags and direction of the precipitation not shown
Flag-MLK3 [4] = biological target: Flag-MLK3 (UniProt Q16584); experiment: as above

| Binder | binding (Flag-JNK2) | binding [1] | binding (Flag-MLK3 [2]) | binding (Flag-JNK1) | binding [3] | binding (Flag-MLK3 [4]) |
| --- | --- | --- | --- | --- | --- | --- |
| HA-tagged human Pellino3a (protein, UniProt Q8N2H9 1-469) MVLEGNPEVGSPRTSDLQHRGNKGSCVLSSPGEDAQPGEEPIKYGELIVLGCCEEGGEETEAQRGEVTGPRAHSCYNGCLASGDKGRRRSRLALSRRSHANGVKPDVMHHISTPLVSKALSNRGQHSISYTLSRSHSVIVEYTHDSDTDMFQIGRSTENMIDFVVTDTSPGGGAAEGPSAQSTISRYACRILCDRRPPYTARIYAAGFDASSNIFLGERAAKWRTPDGLMDGLTTNGVLVMHPAGGFSEDSAPGVWREISVCGNVYTLRDSRSAQQRGKLVENESNVLQDGSLIDLCGATLLWRTPAGLLRAPTLKQLEAQRQEANAARPQCPVGLSTLAFPSPARGRTAPDKQQPWVYVRCGHVHGYHGWGCRRERGPQERECPLCRLVGPYVPLWLGQEAGLCLDPGPPSHAFAPCGHVCSEKTARYWAQTPLPHGTHAFHAACPFCGAWLTGEHGCVRLIFQGPLD | binds weakly | binds | binds | binds weakly |  |  |
| human Pellino3b (protein, UniProt Q8N2H9-2 1-445) MVLEGNPEVGSPRTSDLQHRGNKGSCVLSSPGEDAQPGEEPIKYGELIVLGYNGCLASGDKGRRRSRLALSRRSHANGVKPDVMHHISTPLVSKALSNRGQHSISYTLSRSHSVIVEYTHDSDTDMFQIGRSTENMIDFVVTDTSPGGGAAEGPSAQSTISRYACRILCDRRPPYTARIYAAGFDASSNIFLGERAAKWRTPDGLMDGLTTNGVLVMHPAGGFSEDSAPGVWREISVCGNVYTLRDSRSAQQRGKLVENESNVLQDGSLIDLCGATLLWRTPAGLLRAPTLKQLEAQRQEANAARPQCPVGLSTLAFPSPARGRTAPDKQQPWVYVRCGHVHGYHGWGCRRERGPQERECPLCRLVGPYVPLWLGQEAGLCLDPGPPSHAFAPCGHVCSEKTARYWAQTPLPHGTHAFHAACPFCGAWLTGEHGCVRLIFQGPLD |  |  |  |  | binds | binds |
